Data as given in PubChem BioAssay AID1053208 (Peter MacCallum Cancer Centre, 2014)

Purpose: 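Synthetic lethal interactions between gene loss and doxorubicin in osteosarcoma cells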 (primary screen)
Cells: mouse osteosarcoma cells, early-passage culture from an engineered mouse model of fibroblastic bone tumour
Knock-down reagent: siRNA pool against mouse genes, 40 nM
Time to read-out: about 120 h (48 h before drug, then 72 h with drug)
Conditions: doxorubicin 100 nM for 72 h, roughly 30-40% inhibitory dose
Read-out: 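Viability read as ATP luminescence after 72 h of 100 nM doxorubicin or none, duplicate wells averaged, scaled to non-targeting siRNA, then expressed as robust z-scores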
Scale: viability z-score with doxorubicin: higher = more viable cells under doxorubicin; viability z-score without drug: higher = more viable cells with knock-down alone
Hit rule: 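a pool counts as active when its viability z-score with doxorubicin is -2 or below and its z-score without drug lies between -2 and 2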
In all, the deposit lists about 17,000 reagents; this is an unselected part. Over the whole deposit, 788 (4.7%) got an active call. 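Calls rest on z-score classes alone; an extra cut-off of viability at most 70% of control was not applied to them.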 Unmarked entries are inactive. Not all columns of the deposit are shown.

With Fhad1, how do the results read?
combined z-score class: no change with or without drug; viability z-score with doxorubicin: -0.67; viability z-score without drug: 1.52

For Chodl, what does the deposit list?
combined z-score class: no change with or without drug; viability z-score with doxorubicin: -0.67; viability z-score without drug: 0.51

For Atf3, how do the results read?
combined z-score class: high cell count with and without drug; viability z-score with doxorubicin: 3.15; viability z-score without drug: 2.7

For Srl, what was measured?
combined z-score class: no change with or without drug; viability z-score with doxorubicin: -0.67; viability z-score without drug: -1.52

For Gsdmc, what does the deposit list?
combined z-score class: low cell count with and without drug; viability z-score with doxorubicin: -3.15; viability z-score without drug: -2.7

With Trim39, what was measured?
combined z-score class: no change with or without drug; viability z-score with doxorubicin: -0.45; viability z-score without drug: 0.17

For Ros1, what was measured?
combined z-score class: no change with or without drug; viability z-score with doxorubicin: -0.56; viability z-score without drug: 0.51

What did the screen give for Rhot2?
combined z-score class: no change with or without drug; viability z-score with doxorubicin: 1.91; viability z-score without drug: 0.51

For Gramd2b, what does the deposit list?
combined z-score class: no change with or without drug; viability z-score with doxorubicin: 0.9; viability z-score without drug: 1.69

What is on record for Chaf1b?
combined z-score class: no change with or without drug; viability z-score with doxorubicin: -0.22; viability z-score without drug: 1.35

For Fiz1, what was measured?
combined z-score class: no change with or without drug; viability z-score with doxorubicin: -0.45; viability z-score without drug: -0.51

With Desi2, what does the deposit list?
combined z-score class: low cell count with doxorubicin only (active); viability z-score with doxorubicin: -2.02; viability z-score without drug: 0

For Tulp4, how do the results read?
combined z-score class: no change with or without drug; viability z-score with doxorubicin: 0.34; viability z-score without drug: -0.17

What did the screen give for Anapc7?
combined z-score class: no change with or without drug; viability z-score with doxorubicin: -0.22; viability z-score without drug: -0.17

For Map3k1, what does the deposit list?
combined z-score class: low cell count with doxorubicin only (active); viability z-score with doxorubicin: -2.25; viability z-score without drug: -1.35

What did the screen give for Or8w1?
combined z-score class: no change with or without drug; viability z-score with doxorubicin: 1.12; viability z-score without drug: 0.51

With Wrn, how do the results read?
combined z-score class: no change with or without drug; viability z-score with doxorubicin: -0.45; viability z-score without drug: -0.67

With Nsd3, what does the deposit list?
combined z-score class: no change with or without drug; viability z-score with doxorubicin: 0.22; viability z-score without drug: 0.51

With Or12k5, what was measured?
combined z-score class: no change with or without drug; viability z-score with doxorubicin: 0; viability z-score without drug: -0.51

Only “combined z-score class”, for 2 of the entries above:
Fiz1 = no change with or without drug
Desi2 = low cell count with doxorubicin only (active)
